In PubChem BioAssay AID493014 (National Center for Advancing Translational Sciences (NCATS), 2011):
Out of some 340,000 compounds screened, about 170 (0.05%) were called active. This list was built around the results that the source calls inconclusive (neither active nor inactive); the mix of calls is not that of the screen. The call rests on the fitted dose curve; in most records, active means well fitted inhibition curve with a large enough effect in the signal ratio, with a control signal flat (not every such curve was filed as active); inconclusive means small, poorly fitted or top-dose-only effect, or effect the other way, or a change in a side signal; inactive means flat fitted curve, though single readings scatter; the % refers to the signal ratio. Where the call is inconclusive, the potency comes from a doubtful curve fit.
Potency means the concentration at half of the fitted maximal effect.

Experiment: qHTS Assay to Find Inhibitors of Chronic Active B-Cell Receptor Signaling;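 on activity change, negative = inhibition: plate controls were basal doxycycline-induced cells for no effect and cells given 10 µM MG132 for full effect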
Details: ABC-DLBCL IkBa-CBG/CBR reporter, luminescence ratio (green luciferase fused to IkBa over red control in TMD8 lymphoma cells), 4 h; activity change, negative = inhibition: at 46.1 µM (top of the series) unless noted
Summary of the method: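 TMD8 human ABC-DLBCL cells with doxycycline-inducible IκBα–green luciferase fusion and unfused red luciferase, in 0.5% FBS medium; compounds up to 46 uM, 4 h at 37C. Green/red luminescence ratio, filter-overlap corrected, fitted to concentration-response curves.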
For CC[C@H](CO)Nc1nc(Nc2cccc(Cl)c2)c2ncn(C(C)C)c2n1, the activity change, negative = inhibition was inconclusive: 16.4%.
For CC1CCc2[nH]c3ccc(C(=O)O)cc3c2C1 (stereo not drawn), the activity change, negative = inhibition was inconclusive: 19.1%.
In the case of Cn1c(CCCNC(=O)c2ccccc2)nc2ccccc21, the activity change, negative = inhibition is reported as inconclusive: 8.94%.
For O=c1oc(C2(O)CCCCC2)cc2ccc(Br)cc12, the activity change, negative = inhibition was inconclusive: 1.26%.
In the case of CSc1cccc(CN2CCC(CO)(Cc3cccc(C(F)(F)F)c3)CC2)c1, the activity change, negative = inhibition is reported as inconclusive: -24.5%.
For CCN(C(=O)COC(=O)c1cc2c(s1)CCCC2)c1c(N)n(Cc2ccccc2)c(=O)[nH]c1=O, the activity change, negative = inhibition was inconclusive: -2.16%.
In the case of COc1ccc(/C=N/NC(=O)c2cccc(NC(C)=O)c2)c(C(=O)O)c1OC, the Potency is reported as inconclusive: 12.6 µM [falling, partial curve].
With COc1ccccc1NC(=O)Nc1nc(CC(=O)N2CCN(c3ccc(F)cc3)CC2)cs1 the activity change, negative = inhibition was inconclusive: 0.896%.
For CCC(=O)Nc1ccccc1C(=O)OCC(=O)Nc1ccc(S(N)(=O)=O)cc1, the Potency was inconclusive: 20.6 µM [falling, single point].
For O=C(CSc1nc2ccccc2n1-c1ccccc1)Nc1ncc(Cl)cc1Cl, the activity change, negative = inhibition was inconclusive: 2.18%.
With Cc1ccc(-n2c(Cl)c(Cl)nc(Cl)c2=O)cc1 the activity change, negative = inhibition was inconclusive: 10.7%.
With CCOC(=O)C1=C(C)N(C)C(=O)NC1c1ccc(C)s1 (stereo not drawn) the activity change, negative = inhibition was inconclusive: 3.99%.
In the case of CC(=O)NC(c1cc(Cl)c2cccnc2c1O)C(C)C (stereo not drawn), the activity change, negative = inhibition is reported as “inactive”.
With COc1ccc(-c2c(C)nn3c(Cl)c(C)c(C)nc23)cc1 the activity change, negative = inhibition was inconclusive: -7.09%.
For COc1ccc(CC(=O)Nc2ccc(C(=O)NCC(C)C)cc2)cc1, the activity change, negative = inhibition was inconclusive: 1.33%.
With Cc1ccc(S(=O)(=O)N2CCOCC2)cc1NC(=O)C1=NN(c2ccccc2)C(=O)CC1 the activity change, negative = inhibition was inconclusive: -0.166%.
With O=C1NC[C@@H](Cc2cccc3ccccc23)N(CC2(c3ccccc3)CC2)C1=O the “activity change, negative = inhibition” value was inactive: -15.7%.
With O=C(CSc1cccc2cccnc12)NCc1ccco1 the activity change, negative = inhibition was inconclusive: -19.9%.
For CCN(CC)S(=O)(=O)c1cccc(N=Nc2sc(N)nc2C)c1, the Potency was inconclusive: 11.2 µM [falling, partial curve].
For N/C(=N\OC(=O)Cc1ccc(Cl)cc1)c1ccccn1, the “activity change, negative = inhibition” value was inactive: 0.507%.
For CCN(CC(=O)NCc1ccc(F)cc1)C(=O)COc1ccc2ccccc2c1, the activity change, negative = inhibition was inconclusive: -11.1%.
For COc1ccc(C)cc1N(CC(=O)N/N=C/c1ccc2c(c1)OCO2)S(C)(=O)=O, the activity change, negative = inhibition was inconclusive: -1.78%.
For C=C(C)c1cccc(C(C)(C)NC(=O)NCC2CCCO2)c1 (stereo not drawn), the Potency was inconclusive: 2.91 µM [rising, full curve, poor fit].
For Cc1ccccc1OCCCc1c(C)n[nH]c1C, the Potency was inconclusive: 15.8 µM [falling, single point].
In the case of CCc1ccccc1NC(=O)COc1cccc(-n2cnnn2)c1, the activity change, negative = inhibition is reported as inconclusive: -30%.
For Cc1ccccc1OCc1nnc(SCC(=O)NCc2ccco2)n1C, the “activity change, negative = inhibition” value was inactive: -5.4%.
For COC(=O)c1ccc(/C=N/NC(=O)c2ccccc2Cl)cc1, the Potency was inconclusive: 23.1 µM [falling, partial curve].
For CS(=O)(=O)c1ccc2nc(NC(=O)c3ccc(Cn4cc(Br)cn4)o3)sc2c1, the “activity change, negative = inhibition” value was inactive: -0.899%.
With COc1ccc(OC)c(NC(=O)c2ccc(NC3=NC4CS(=O)(=O)CC4S3)cc2)c1 (stereo not drawn) the activity change, negative = inhibition was inconclusive: -11.7%.
In the case of O=C(C[n+]1ccccc1)c1ccc(NC(=O)c2ccccc2)cc1, the activity change, negative = inhibition is reported as inconclusive: -4.78%.
In the case of O=C(Nc1ccc(N2CCCC2)c(Cl)c1)c1ccccc1[N+](=O)[O-], the Potency is reported as inconclusive: 4.61 µM [falling, full curve].
With O=C(N[C@H]1C/C=C\C[C@H](CC(=O)N(CCO)Cc2ccccc2)C(=O)N[C@@H](c2ccccc2)COC1=O)OCC1c2ccccc2-c2ccccc21 the “activity change, negative = inhibition” value was inactive: 4.67%.
With CCOc1cc(C(=O)OCC(=O)Nc2ccc(Cl)cn2)ccc1OCC(=O)N1CCOCC1 the activity change, negative = inhibition was inconclusive: -4.71%.
For CCCn1c2ccccc2c2cnn(CC(=O)NCCCN3CCCC(C)C3)c(=O)c21 (stereo not drawn), the activity change, negative = inhibition was inconclusive: -13.6%.
For COc1ccccc1N1C(=O)C(Cl)=C(Nc2ccccc2O)C1=O, the Potency was inconclusive: 1.78 µM [falling, full curve, poor fit].
For Cc1ccc(C(=O)Nc2nc(-c3ccc(F)cc3)cs2)o1, the activity change, negative = inhibition was inconclusive: -7.97%.
For O=C(Oc1ccccc1)c1cc2ccccc2oc1=O, the activity change, negative = inhibition was inconclusive: 5.39%.
In the case of Cc1cc(C)c(S(=O)(=O)c2ccccc2)c(OC(=O)c2c(F)cccc2Cl)n1, the activity change, negative = inhibition is reported as inconclusive: -18.9%.
For COc1c(Cl)cnn(-c2ccc(C)cc2)c1=O, the activity change, negative = inhibition was inconclusive: 5.78%.
For O=C(O)C1C2C=CC(C2)C1C(=O)NCCCN1CCOCC1 (stereo not drawn), the activity change, negative = inhibition was inconclusive: 3.87%.
In the case of CC(=O)NCCNC(=O)c1ccc(Cn2c(=O)[nH]c3ccsc3c2=O)cc1, the “activity change, negative = inhibition” value is reported as inactive: -5.08%.
With CCC/C(C#Cc1cc(OC)cc(OC)c1)=C1/c2ccccc2C(=O)N1c1ccccc1 the activity change, negative = inhibition was inconclusive: -12.4%.
In the case of Cc1ccc(C2(CCNC(C)c3cccs3)CCOC(C(C)C)C2)cc1 (stereo not drawn), the activity change, negative = inhibition is reported as inconclusive: -17.1%.
For COc1ccc(N=c2sc3ccccc3n2C)cc1, the activity change, negative = inhibition was inconclusive: 13.8%.
For Cc1ccc(NC(=O)CN2C(=O)S/C(=C\c3ccccn3)C2=O)cc1C, the activity change, negative = inhibition was inconclusive: -5.14%.
In the case of CCOC(=O)c1c(C)n(C(=O)c2ccco2)c(=O)n1C(=O)c1ccco1, the “activity change, negative = inhibition” value is reported as inactive: -0.813%.
In the case of CCC(=O)c1ccc(N2CCN(C(=O)c3cccs3)CC2)c(F)c1, the activity change, negative = inhibition is reported as inconclusive: -0.798%.
With COC(=O)c1sccc1NC(=O)c1ccc(Br)s1 the Potency was inconclusive: 0.366 µM [rising, full curve].
With CCOC(=O)c1nnc(-c2ccccc2)nc1Sc1c(Cl)cccc1Cl the Potency was inconclusive: 8.2 µM [rising, partial curve].
For c1cncc(-c2ccc3ncnc(NCc4cccs4)c3c2)c1, the Potency was inconclusive: 23.1 µM [falling, single point] and the activity change, negative = inhibition was inconclusive: -1.86%.
In the case of O=C(CCN1C(=O)c2ccccc2S1(=O)=O)Nc1cc(Cl)ccc1Cl, the activity change, negative = inhibition is reported as inconclusive: 6.3%.
For Cc1ccc(NC(=O)Cn2c(=O)c(CNc3ccccc3)cc3cc4c(cc32)OCCO4)cc1, the “activity change, negative = inhibition” value was inactive: -22%.
In the case of O=C(CSc1ncnc2c1oc1ccccc12)NCc1ccco1, the “activity change, negative = inhibition” value is reported as inactive: 1.12%.
In the case of CCc1ccc(NC(=O)C(C)OC(=O)c2cc(=O)[nH]c3ccc(S(=O)(=O)Nc4ccc(F)cc4)cc23)cc1 (stereo not drawn), the “activity change, negative = inhibition” value is reported as inactive: 0.158%.
In the case of COC(=O)c1ccc(COc2ccc(/C=N/NC(N)=S)cc2)o1, the Potency is reported as inconclusive: 3.98 µM [falling, full curve].
In the case of c1coc(CSSCc2ccco2)c1, the activity change, negative = inhibition is reported as inconclusive: -7.37%.
In the case of Cn1c(N2CCN(C(=O)C34CC5CC(CC(C5)C3)C4)CC2)nc2ccccc21, the activity change, negative = inhibition is reported as inconclusive: -15.9%.
With Cc1cc(C)c2cc(C(=O)N3CCN(c4ncccc4C(F)(F)F)CC3)[nH]c2c1 the activity change, negative = inhibition was inconclusive: -2.11%.
In the case of O=C(Nc1nccs1)c1ccc2c(c1)OCO2, the activity change, negative = inhibition is reported as inconclusive: -12.8%.
In the case of Oc1ccc(/C=N/Nc2ccc(C(F)(F)F)cn2)c(O)c1, the activity change, negative = inhibition is reported as inconclusive: 8.15%.
For CC(C)NC(=O)c1ccc2c(c1)N(Cc1ccccc1)C(=O)C(C)(C)O2, the “activity change, negative = inhibition” value was inactive: 0.401%.
For CNC(=O)c1[nH]cnc1C(=O)Nc1cccc(OC)c1, the activity change, negative = inhibition was inconclusive: -16.2%.
With CCOC(=O)C1=C(COC(=O)COc2ccc(Br)cc2)NC(=O)NC1C (stereo not drawn) the activity change, negative = inhibition was inconclusive: -18.2%.
In the case of CCc1nc(N2CCN(C(=O)CCl)CC2)c2c3c(sc2n1)CC(C)CC3 (stereo not drawn), the “activity change, negative = inhibition” value is reported as inactive: -5.12%.
For O=C(N/N=C/c1ccncc1)c1ccc(-n2cccc2)cc1, the activity change, negative = inhibition was inconclusive: 5.63%.
In the case of Cc1ccc(N2C(=O)C3C4C=CC(CNC(=S)N5CCN(c6ccccc6)CC5)(O4)C3C2=O)cc1 (stereo not drawn), the “activity change, negative = inhibition” value is reported as inactive: -8.69%.
In the case of CN(/N=C/c1cc(Br)cc(Br)c1O)c1cccc(C(F)(F)F)n1, the Potency is reported as inconclusive: 10 µM [falling, partial curve].
For CC(C)CCNC(=O)c1nn(Cc2ccccc2)c(=O)c2ccccc12, the activity change, negative = inhibition was inconclusive: 9.14%.
For O=C(NC1CC1)c1cccc(NC(=O)c2cnn(-c3ccccc3)n2)c1, the activity change, negative = inhibition was inconclusive: -13.1%.
With O=C(CCl)NCc1cc(-c2ccc(Cl)cc2)no1 the Potency was inconclusive: 28.2 µM [falling, single point].
For O=C(CCC1CCCC1)NCc1ccccn1, the activity change, negative = inhibition was inconclusive: 16.9%.
For COc1ccccc1OCCn1cc(/C=N/n2cnnc2)c2ccccc21, the Potency was inconclusive: 11.6 µM [falling, partial curve, poor fit].
With COC(=O)C1=C(N)Oc2cc(C)n(CCCn3ccnc3)c(=O)c2C1c1cccc(Cl)c1 (stereo not drawn) the activity change, negative = inhibition was inconclusive: -2.57%.
For CC(C)(C)NC(=O)C(c1ccc(O)cc1)N(Cc1ccco1)C(=O)Cn1nnc(-c2cccs2)n1 (stereo not drawn), the activity change, negative = inhibition was inconclusive: -24.2%.
With C/C=C(\C)CN1CCN(c2ccc(C)cc2)CC1 the Potency was inconclusive: 20.6 µM [rising, partial curve, poor fit].
In the case of COc1ccc(-c2nc(N=Nc3ccc(O)cc3)n[nH]2)cc1, the activity change, negative = inhibition is reported as inconclusive: -18.7%.
In the case of CCN(CC)C(=O)Cn1cc(C(=O)C(=O)NCc2cccs2)c2ccccc21, the Potency is reported as inconclusive: 14.1 µM [falling, partial curve].
With CN(C)CCCOC(=O)c1ccccc1Cl the activity change, negative = inhibition was inconclusive: 12.8%.
With Cc1cc(C)cc(Nc2nc3ccccc3c(=O)[nH]2)c1 the “activity change, negative = inhibition” value was inactive: 2.39%.
In the case of O=C(NCCc1c[nH]c2ccccc12)Nc1ccccc1, the Potency is reported as inconclusive: 18.4 µM [falling, partial curve].
For CCCCn1c(NC(=O)c2ccc(Br)o2)c(S(=O)(=O)c2ccccc2)c2nc3ccccc3nc21, the “activity change, negative = inhibition” value was inactive: 0.164%.
In the case of O=C(CCCN1C(=O)c2ccccc2C1=O)Nc1ccc2c(c1)OCCO2, the activity change, negative = inhibition is reported as inconclusive: 0.198%.
